Experimental data: article PMC7833164
These are yes or no findings as the source states them, for the method shown. A result given as binding can be weak or reduced; the word gives no strength. Tags and fused reporters may be left off the sequences shown. For some of these results: In cells and extracts the contact can be indirect.

B1: GST-tagged yeast Vps5 (protein, UniProt Q92331 1-675)
chain: MDYEDNLEAPVWDELNHEGDKTQSLVSNSIESIGQISTNEERKDNELLETTASFADKIDLDSAPEWKDPGLSVAGNPQLEEHDNSKADDLINSLAPEQDPIADLKNSTTQFIATRESGGALFTGNANSPLVFDDTIYDANTSPNTSKSISGRRSGKPRILFDSARAQRNSKRNHSLKAKRTTASDDTIKTPFTDPLKKAEKENEFVEEPLDDRNERRENNEGKFTASVEKNILEQVDRPLYNLPQTGANISSPAEVEENSEKFGKTKIGSKVPPTEKAVAFKVEVKDPVKVGELTSIHVEYTVISESSLLELKYAQVSRRYRDFRWLYRQLQNNHWGKVIPPPPEKQSVGSFKENFIENRRFQMESMLKKICQDPVLQKDKDFLLFLTSDDFSSESKKRAFLTGSGAINDSNDLSEVRISEIQLLGAEDAAEVLKNGGIDAESHKGFMSISFSSLPKYNEADEFFIEKKQKIDELEDNLKKLSKSLEMVDTSRNTLAASTEEFSSMVETLASLNVSEPNSELLNNFADVHKSIKSSLERSSLQETLTMGVMLDDYIRSLASVKAIFNQRSKLGYFLVVIENDMNKKHSQLGKLGQNIHSEKFREMRKEFQTLERRYNLTKKQWQAVGDKIKDEFQGFSTDKIREFRNGMEISLEAAIESQKECIELWETFYQTNL
B2: nYFP-Snx1 (protein, UniProt Q9FG38 1-402)
chain: MESTEQPRNISGSMQSPRSPSSHPYLSVSVTDPVKLGNGVQAYISYRVITKTNLPEYQGPEKIVIRRYSDFVWLRDRLFEKYKGIFIPPLPEKSAVEKFRFSAEFIEMRRAALDIFVNRIALHPELQQSEDLRTFLQADEETMDRFRFQETSIFKKPADLMQMFRDVQSKVSDAVLGKEKPVEETTADYEKLKHYIFELENHLTEAQKHAYRLVKRHRELGQSLLDFGKAVKLLGACEGEPTGKAFSDLGTKSELLSIKLQKEAQQVLMNFEEPLKDYVRYVQSIKATIAERGTAFKQHCELSETTKLKEINLDKLMLTRSDKVGEAEIEYREIKAESEEATRRFERIVKRMEDEIVRFQEQKTEEMGVAFHQFAKGQARLANSVADAWRSLLPKLEASYSV
B3: GST-tagged AtSnx1 (protein, UniProt Q9FG38 1-402)
chain: B2 chain
B4: nYFP-Snx2a (protein, UniProt Q8L5Z7 1-587)
chain: MMGSENADGFEETNLNAQRDDMENLDLGVDGGDHPLKISDVNGDTSNSGYRSAMSTLSNVRDPLSPPPTVMIPADSDPLLAPSSYEDFRSSFSSKPISSDNSYIEPPSYADVIFSPFDENSDSEINGTEDNSLHSQFSDSLSRSPSSSSSDYIKITVSNPQKEQEISNSIVGGNTYITYQITTRTNLPDFGGPSEFSVRRRFRDVVTLADRLAETYRGFCIPPRPDKSVVESQVMQKQEFVEQRRVALEKYLRRLSAHPVIRNSDELKVFLQVQGKLPLPMSTDVASRMLDGAVKLPKQLFGEGGASAVPVTEVGQPARGGRDLLRLFKELRQSVSNDWGGSKPPVVEEDKEFLEKKEKMHDLEQQIINASQQAESLVKAQQDMGETMGELGLAFIKLTKFENEEAVCNPQRTRANDMKNLATAAVKASRFYRELNSQTVKHLDTLHEYLGMMMAVQGAFADRSSALLTVQTLLSELPSLQTRVEKLEAASSKVFGGDKSRIRKIEELKETIKVTEDAKNVAIKGYERIKENNRSEVERLDRERRADFMNMMKGFVVNQVGYAEKMGNVWAKVAEETSQYDREKQSS
B5: nYFP-Snx2b (protein, UniProt B9DFS6 1-572)
chain: MMGSENDEESHLHSSKEEMEKLFLREDGDPLTKSNVNGDKSNSNYRSAMSTLFDSRHPSIVVTPADSDPLFAPPSYYSESRSPRSKPNGGDRVSSYLEPPSYADVIFSPFDDISEINGSEDGHSQSSDSLSRSPSSLSSDYIKITVSNPQKEQEATNSMIPGGSTYITYQITTRTNLSDYGGSEFSVRRRFRDIVTLADRLAESYRGFCIPPRPDKSIVESQVMQKQEFVEQRRVALEKYLRRLVAHPVIRNSDELKVFLQAQGKLPLATSTDVASRMLDGAVKLPKQLFGEGGGASSVEVVQPGRGGRDFLRMFKELRQSVSNDWGGSKPPVVEEDKEFLEKKEKMYDLEQQIINASQQAESLVKAQQDMGETMGELGLAFIKLTKFENEEAVFNSQRARANDMKNLATSAVKASRFYRELNSQTVKHLDTLHDYLGLMMAVQGAFADRSSALLTVQTLLSELSSLEARAEKLEVASSKVFGGDKSRIKKIEELKETIKVTEDSKNVAIREYEQIKENNWSEVERLDRERRADFLNMMKGFVANQVGYAEKIANVWTKVAEETRQYDRESS
B6: GST-tagged AtSnx2b (protein, UniProt B9DFS6 1-572)
chain: B5 chain

Columns and labels:
[1] = target: T1, Flag-tagged Snx2b (Arabidopsis (At prefix of the construct)) (UniProt B9DFS6); assay: co-IP; AtSnx1-Flag or AtSnx2b-Flag purified on anti-Flag M2 agarose from the 1% Triton X-100 solubilized membrane fraction of agroinfiltrated, TBSV-infected N. benthamiana leaves; p33-myc detected with anti-myc
T1 sequence: B5 chain

[2] = target: MBP-tagged TBSV p33 replication protein (tomato bushy stunt virus (TBSV)); assay: pull-down; 2 ug MBP-p33 held on amylose resin, 1 ug GST-tagged SNX-BAR protein added, 4 C for 4 h, eluted with maltose, Western blot; both purified
[3] = target: CIRV p36-cYFP (carnation Italian ringspot virus (CIRV)); assay: split reporter; BiFC: cYFP fusion of the viral replication protein and nYFP fusion of the SNX-BAR protein co-agroinfiltrated into N. benthamiana leaves, leaves infected with TBSV or CIRV, confocal microscopy 48 h after inoculation; also leaves treated with 66 uM Wortmannin or DMSO (p33 with Snx1 and Snx2b)
[4] = target: TBSV p33-cYFP (tomato bushy stunt virus (TBSV)); assay: as above

| Molecule | binding [1] | binding [2] | binding [3] | binding [4] |
| --- | --- | --- | --- | --- |
| myc-tagged TBSV p33 replication protein (tomato bushy stunt virus (TBSV)) | binds |  |  |  |
| B1 |  | binds |  |  |
| B2 |  |  | binds | binds |
| B3 |  | binds |  |  |
| B4 |  |  | binds | binds |
| B5 |  |  | binds | binds |
| B6 |  | binds |  |  |
